Read-outs that look alike come from different tables or passages of the source. These are yes or no findings as the source states them, for the method shown. Binding seen in cells or lysates may run through a third protein. Some entries that bind do so weakly or less than the wild type. One block for each molecule: values may come before it.
Key:
Test in all cases: co-IP; HT22 cell lysate, endogenous proteins; cells treated with nicotine (1, 10, 100 ng/mL), resveratrol, SRT1720, Selisistat, FK866, Nampt-IN-1, cotinine, β-galactose or an nAChR inhibitor; SIRT1 or NAMPT/PBEF antibody, protein A/G agarose, western blot; IgG as negative control
[1] = molecular target: nicotinamide phosphoribosyl transferase (NAMPT) (mouse (endogenous in C57BL/6J tissues and HT22 cells)) (UniProt Q99KQ4)
[2] = molecular target: T1, SIRT1 (mouse (endogenous in C57BL/6J tissues, HT22 and BV2 cells)) (UniProt Q923E4)
T1 sequence: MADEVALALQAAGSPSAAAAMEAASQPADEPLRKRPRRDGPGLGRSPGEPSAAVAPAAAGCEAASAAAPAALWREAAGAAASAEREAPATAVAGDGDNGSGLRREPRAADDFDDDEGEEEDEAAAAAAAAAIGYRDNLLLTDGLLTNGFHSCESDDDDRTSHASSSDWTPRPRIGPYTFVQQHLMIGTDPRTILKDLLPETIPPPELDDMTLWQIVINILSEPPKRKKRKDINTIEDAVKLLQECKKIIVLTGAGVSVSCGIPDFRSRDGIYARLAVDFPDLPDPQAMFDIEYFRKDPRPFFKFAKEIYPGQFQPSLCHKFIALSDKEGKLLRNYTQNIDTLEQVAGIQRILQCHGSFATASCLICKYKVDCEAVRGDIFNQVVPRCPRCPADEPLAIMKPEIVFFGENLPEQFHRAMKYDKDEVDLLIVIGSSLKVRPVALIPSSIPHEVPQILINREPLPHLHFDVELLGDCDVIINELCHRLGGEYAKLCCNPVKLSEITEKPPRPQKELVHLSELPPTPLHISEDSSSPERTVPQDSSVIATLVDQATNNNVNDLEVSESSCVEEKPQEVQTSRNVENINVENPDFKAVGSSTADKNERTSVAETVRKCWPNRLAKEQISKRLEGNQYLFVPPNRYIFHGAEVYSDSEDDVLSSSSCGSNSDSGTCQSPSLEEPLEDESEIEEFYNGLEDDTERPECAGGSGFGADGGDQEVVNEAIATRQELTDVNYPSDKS

Protein sequences, listed by entry. Tags and fused reporters are not part of them.
UniProt Q99KQ4: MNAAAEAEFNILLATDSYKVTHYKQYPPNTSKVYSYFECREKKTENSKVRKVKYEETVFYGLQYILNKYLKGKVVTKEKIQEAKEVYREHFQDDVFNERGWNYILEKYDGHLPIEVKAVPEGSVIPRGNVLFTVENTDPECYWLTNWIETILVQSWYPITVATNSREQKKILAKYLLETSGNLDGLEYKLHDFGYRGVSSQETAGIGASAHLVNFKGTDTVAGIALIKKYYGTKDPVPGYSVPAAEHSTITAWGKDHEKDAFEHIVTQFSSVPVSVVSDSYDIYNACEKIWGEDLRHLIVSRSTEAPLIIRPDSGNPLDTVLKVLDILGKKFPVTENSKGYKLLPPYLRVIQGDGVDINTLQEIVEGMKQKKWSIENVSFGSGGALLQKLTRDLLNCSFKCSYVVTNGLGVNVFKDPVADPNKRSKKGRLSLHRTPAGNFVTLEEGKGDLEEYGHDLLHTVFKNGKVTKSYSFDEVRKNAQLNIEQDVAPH
UniProt Q8BKJ9: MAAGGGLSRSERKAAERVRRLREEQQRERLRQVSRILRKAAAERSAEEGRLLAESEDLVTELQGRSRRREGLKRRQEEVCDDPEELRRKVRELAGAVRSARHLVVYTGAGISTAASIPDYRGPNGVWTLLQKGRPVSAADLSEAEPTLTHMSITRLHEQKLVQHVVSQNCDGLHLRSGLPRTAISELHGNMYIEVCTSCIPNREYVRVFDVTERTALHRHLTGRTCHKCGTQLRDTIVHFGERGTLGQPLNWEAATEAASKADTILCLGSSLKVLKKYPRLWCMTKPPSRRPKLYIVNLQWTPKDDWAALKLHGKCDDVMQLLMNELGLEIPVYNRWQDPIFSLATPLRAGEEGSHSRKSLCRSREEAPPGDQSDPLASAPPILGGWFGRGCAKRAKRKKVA
UniProt P02340: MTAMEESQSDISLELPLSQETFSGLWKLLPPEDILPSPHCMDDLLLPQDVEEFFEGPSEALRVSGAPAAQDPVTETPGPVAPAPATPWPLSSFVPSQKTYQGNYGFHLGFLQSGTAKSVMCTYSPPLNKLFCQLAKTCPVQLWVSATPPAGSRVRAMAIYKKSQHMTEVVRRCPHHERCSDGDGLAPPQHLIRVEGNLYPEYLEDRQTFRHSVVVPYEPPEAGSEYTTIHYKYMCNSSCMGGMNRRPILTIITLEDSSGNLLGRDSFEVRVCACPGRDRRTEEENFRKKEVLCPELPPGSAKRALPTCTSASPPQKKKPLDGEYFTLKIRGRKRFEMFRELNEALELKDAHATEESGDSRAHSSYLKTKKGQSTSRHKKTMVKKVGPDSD

[3] = molecular target: T1, SIRT1 (mouse (endogenous in C57BL/6J tissues, HT22 and BV2 cells)); remark: listed apart in the source

- binding [1]: binds
Molecule: SIRT7 (from UniProt Q8BKJ9 1-402)

- binding [2]: binds
Molecule: p53 (from UniProt P02340 1-390)

- binding [3]: binds
B1: PGC-1α (protein, UniProt O70343 1-797)
chain: MAWDMCSQDSVWSDIECAALVGEDQPLCPDLPELDLSELDVNDLDTDSFLGGLKWCSDQSEIISNQYNNEPANIFEKIDEENEANLLAVLTETLDSLPVDEDGLPSFDALTDGAVTTDNEASPSSMPDGTPPPQEAEEPSLLKKLLLAPANTQLSYNECSGLSTQNHAANHTHRIRTNPAIVKTENSWSNKAKSICQQQKPQRRPCSELLKYLTTNDDPPHTKPTENRNSSRDKCASKKKSHTQPQSQHAQAKPTTLSLPLTPESPNDPKGSPFENKTIERTLSVELSGTAGLTPPTTPPHKANQDNPFKASPKLKPSCKTVVPPPTKRARYSECSGTQGSHSTKKGPEQSELYAQLSKSSGLSRGHEERKTKRPSLRLFGDHDYCQSLNSKTDILINISQELQDSRQLDFKDASCDWQGHICSSTDSGQCYLRETLEASKQVSPCSTRKQLQDQEIRAELNKHFGHPCQAVFDDKSDKTSELRDGDFSNEQFSKLPVFINSGLAMDGLFDDSEDESDKLSYPWDGTQPYSLFDVSPSCSSFNSPCRDSVSPPKSLFSQRPQRMRSRSRSFSRHRSCSRSPYSRSRSRSPGSRSSSRSCYYYESSHYRHRTHRNSPLYVRSRSRSPYSRRPRYDSYEAYEHERLKRDEYRKEHEKRESERAKQRERQKQKAIEERRVIYVGKIRPDTTRTELRDRFEVFGEIEECTVNLRDDGDSYGFITYRYTCDAFAALENGYTLRRSNETDFELYFCGRKQFFKSNYADLDTNSDDFDPASTKSKYDSLDFDSLLKEAQRSLRR

Source: publication PMC9935903
